We go through one molecule from article PMC11515916.

In the experiment the target is Myc-tagged ZNF8 domain ZF repeats. Description: co-IP; IP with anti-Myc or anti-Flag antibody in HEK293T cells co-transfected with Flag- and Myc-tagged proteins and their deletion mutants or domains.

No constants are given. Whether binding was seen depends on the method and setting. In cells and extracts the contact can be indirect. Binding calls can cover weak binding; strength is not graded here. Tags and fused reporters may be left off the sequences shown.

B1: Flag-SMYD3 (protein, UniProt Q9H7B4 1-428)
chain: MEPLKVEKFATAKRGNGLRAVTPLRPGELLFRSDPLAYTVCKGSRGVVCDRCLLGKEKLMRCSQCRVAKYCSAKCQKKAWPDHKRECKCLKSCKPRYPPDSVRLLGRVVFKLMDGAPSESEKLYSFYDLESNINKLTEDKKEGLRQLVMTFQHFMREEIQDASQLPPAFDLFEAFAKVICNSFTICNAEMQEVGVGLYPSISLLNHSCDPNCSIVFNGPHLLLRAVRDIEVGEELTICYLDMLMTSEERRKQLRDQYCFECDCFRCQTQDKDADMLTGDEQVWKEVQESLKKIEELKAHWKWEQVLAMCQAIISSNSERLPDINIYQLKVLDCAMDACINLGLLEEALFYGTRTMEPYRIFFPGSHPVRGVQVMKVGKLQLHQGMFPQAMKNLRLAFDIMRVTHGREHSLIEDLILLLEECDANIRAS
For the molecule B1, the binding entry is on record as “binds”.
